Results from paper PMC13159128.

The chains behind the UniProt entries cited, without tags or fusion partners. Residues count along the entry.
UniProt P0C0I3, residues 34-571: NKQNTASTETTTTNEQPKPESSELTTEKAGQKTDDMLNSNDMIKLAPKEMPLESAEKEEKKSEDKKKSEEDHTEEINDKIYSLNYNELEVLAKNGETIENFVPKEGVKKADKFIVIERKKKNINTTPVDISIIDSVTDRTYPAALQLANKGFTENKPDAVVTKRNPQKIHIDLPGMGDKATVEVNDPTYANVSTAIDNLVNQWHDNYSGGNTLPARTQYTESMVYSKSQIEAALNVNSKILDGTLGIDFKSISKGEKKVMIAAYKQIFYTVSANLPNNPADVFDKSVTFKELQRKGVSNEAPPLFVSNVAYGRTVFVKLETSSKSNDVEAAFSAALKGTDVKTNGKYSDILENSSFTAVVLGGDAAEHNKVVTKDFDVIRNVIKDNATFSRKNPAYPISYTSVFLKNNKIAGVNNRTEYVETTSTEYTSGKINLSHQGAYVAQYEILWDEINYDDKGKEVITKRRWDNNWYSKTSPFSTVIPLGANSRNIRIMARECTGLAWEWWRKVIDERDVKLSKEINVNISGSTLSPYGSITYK
UniProt P02748, residues 22-559: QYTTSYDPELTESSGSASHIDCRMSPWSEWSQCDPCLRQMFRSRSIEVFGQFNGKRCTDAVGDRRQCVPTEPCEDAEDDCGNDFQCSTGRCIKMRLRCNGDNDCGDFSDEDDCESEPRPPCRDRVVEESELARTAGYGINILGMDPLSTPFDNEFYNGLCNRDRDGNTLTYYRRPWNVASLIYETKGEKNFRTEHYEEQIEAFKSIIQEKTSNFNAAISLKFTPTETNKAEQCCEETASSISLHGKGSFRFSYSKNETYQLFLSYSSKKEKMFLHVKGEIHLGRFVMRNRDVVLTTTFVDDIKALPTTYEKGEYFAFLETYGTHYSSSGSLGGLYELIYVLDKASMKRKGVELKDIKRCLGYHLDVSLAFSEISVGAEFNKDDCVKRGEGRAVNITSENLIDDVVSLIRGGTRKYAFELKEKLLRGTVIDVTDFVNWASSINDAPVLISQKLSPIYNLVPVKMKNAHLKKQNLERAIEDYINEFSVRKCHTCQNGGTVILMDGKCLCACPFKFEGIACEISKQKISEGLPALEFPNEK
UniProt P01591, residues 23-159: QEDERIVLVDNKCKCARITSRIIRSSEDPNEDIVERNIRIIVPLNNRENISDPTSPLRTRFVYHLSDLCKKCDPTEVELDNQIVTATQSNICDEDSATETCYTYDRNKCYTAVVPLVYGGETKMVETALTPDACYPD
UniProt P10643, residues 23-843: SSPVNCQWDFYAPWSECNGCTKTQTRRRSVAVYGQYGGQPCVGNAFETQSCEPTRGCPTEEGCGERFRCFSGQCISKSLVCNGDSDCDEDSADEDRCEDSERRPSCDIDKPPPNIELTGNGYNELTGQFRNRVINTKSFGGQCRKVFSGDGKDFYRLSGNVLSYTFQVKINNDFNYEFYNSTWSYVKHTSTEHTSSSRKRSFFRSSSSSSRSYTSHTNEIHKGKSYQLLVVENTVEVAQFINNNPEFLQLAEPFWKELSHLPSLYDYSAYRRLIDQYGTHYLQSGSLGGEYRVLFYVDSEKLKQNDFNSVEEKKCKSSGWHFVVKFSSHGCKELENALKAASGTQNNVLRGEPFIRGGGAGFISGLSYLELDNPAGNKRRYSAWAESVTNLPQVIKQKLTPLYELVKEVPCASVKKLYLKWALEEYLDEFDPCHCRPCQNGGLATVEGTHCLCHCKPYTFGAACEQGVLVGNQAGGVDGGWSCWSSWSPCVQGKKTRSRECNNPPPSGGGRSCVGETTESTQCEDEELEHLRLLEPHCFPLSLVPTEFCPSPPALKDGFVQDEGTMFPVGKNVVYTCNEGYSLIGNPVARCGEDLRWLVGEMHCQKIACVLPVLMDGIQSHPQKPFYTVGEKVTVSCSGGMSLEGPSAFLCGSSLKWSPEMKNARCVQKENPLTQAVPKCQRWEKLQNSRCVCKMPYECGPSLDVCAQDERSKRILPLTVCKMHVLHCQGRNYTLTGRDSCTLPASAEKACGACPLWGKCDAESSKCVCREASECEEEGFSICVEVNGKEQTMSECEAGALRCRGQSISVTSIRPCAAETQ
UniProt P13671, residues 22-934: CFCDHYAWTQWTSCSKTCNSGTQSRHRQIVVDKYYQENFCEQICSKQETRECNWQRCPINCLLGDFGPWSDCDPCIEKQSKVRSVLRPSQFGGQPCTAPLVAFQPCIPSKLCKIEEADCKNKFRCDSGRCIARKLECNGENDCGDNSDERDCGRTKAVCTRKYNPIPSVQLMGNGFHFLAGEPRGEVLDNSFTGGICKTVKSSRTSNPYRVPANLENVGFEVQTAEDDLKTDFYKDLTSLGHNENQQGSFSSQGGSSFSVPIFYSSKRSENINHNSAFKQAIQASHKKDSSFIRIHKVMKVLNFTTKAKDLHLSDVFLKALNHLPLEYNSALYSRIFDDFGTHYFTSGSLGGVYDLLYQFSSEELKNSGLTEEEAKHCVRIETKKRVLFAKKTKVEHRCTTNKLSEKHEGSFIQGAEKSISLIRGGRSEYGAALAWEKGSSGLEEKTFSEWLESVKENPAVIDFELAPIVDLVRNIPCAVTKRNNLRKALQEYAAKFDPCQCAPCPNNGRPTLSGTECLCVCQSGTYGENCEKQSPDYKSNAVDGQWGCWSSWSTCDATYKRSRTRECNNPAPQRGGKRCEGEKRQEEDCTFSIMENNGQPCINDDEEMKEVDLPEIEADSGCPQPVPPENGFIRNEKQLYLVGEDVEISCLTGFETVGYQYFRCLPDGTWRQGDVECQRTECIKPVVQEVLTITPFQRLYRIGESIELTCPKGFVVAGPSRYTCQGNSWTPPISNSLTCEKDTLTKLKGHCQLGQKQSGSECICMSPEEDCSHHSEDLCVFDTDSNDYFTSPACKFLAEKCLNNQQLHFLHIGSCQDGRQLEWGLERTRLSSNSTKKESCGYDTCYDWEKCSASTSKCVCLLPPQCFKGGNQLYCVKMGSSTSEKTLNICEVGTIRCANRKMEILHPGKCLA

Target: streptolysin O (SLO), recombinant GAS M1 virulence factor (Streptococcus pyogenes (GAS) serotype M1) (UniProt P0C0I3)
Assay: affinity purification with mass spectrometry; interactome A: tagged bait immobilised on Strep-Tactin Sepharose, prey pooled human plasma (50 % v/v in PBS) or pooled, centrifuged and filtered saliva, PBS washes, elution with biotin; DIA MS, MiST score >= 0.75; GFP control bait; n = 3; only the target purified

Substance	binding
complement component C9 (from UniProt P02748 22-559)	binds
JCHAIN (from UniProt P01591 23-159)	binds
complement component C7 (from UniProt P10643 23-843)	binds
complement component C6 (from UniProt P13671 22-934)	binds

Results are given in words; binding and its absence hold for the method and conditions named. Binding seen in cells or lysates may run through a third protein. A yes stands for co-enrichment or nearness to the bait. Other partners may have been found.
